The numbers were not newly measured in patent US6153745A, “Relating to mutagenesis of nucleic acids” (Amersham Pharmacia Biotech UK Limited, priority 1995, dated 2000), which cites them from elsewhere.

Read-outs that look alike come from different tables or passages of the source.

This data set deals with adenine and guanine. Particulars: cited from earlier work.

Take `O=C1NC2=NOCCC2=CN1[C@H]1C[C@H](O)[C@@H](CO)O1` [P]: the base pairing entry was “forms base pairs of equivalent stability with adenine and guanine”. The base pairing entry (listed as dP) is given as “pairs with adenine or guanine”.
